Experimental data reported in paper PMC9352668.
No constants are given. Whether binding was seen depends on the method and setting. In cells and extracts the contact can be indirect. Some results given as binding are weak or reduced against the parent protein; the word gives no strength.

Sequences of proteins named here, by UniProt entry; tags and fusion partners are left off. A change or cut given only in a name is not applied to a line headed by its entry.
UniProt Q01094: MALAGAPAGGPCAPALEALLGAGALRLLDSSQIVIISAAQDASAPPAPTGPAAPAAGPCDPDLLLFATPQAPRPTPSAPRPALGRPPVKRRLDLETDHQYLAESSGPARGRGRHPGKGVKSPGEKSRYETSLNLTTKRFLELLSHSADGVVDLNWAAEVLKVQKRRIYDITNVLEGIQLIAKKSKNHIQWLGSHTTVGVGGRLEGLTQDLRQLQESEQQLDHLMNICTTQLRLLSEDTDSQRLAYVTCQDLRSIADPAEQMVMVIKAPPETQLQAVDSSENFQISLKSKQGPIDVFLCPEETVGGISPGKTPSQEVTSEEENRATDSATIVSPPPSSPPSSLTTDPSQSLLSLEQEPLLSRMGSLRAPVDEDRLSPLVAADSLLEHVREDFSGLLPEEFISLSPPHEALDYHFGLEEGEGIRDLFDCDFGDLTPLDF

Biological target: E2F transcription factor 1 (human (endogenous in PANC-1)) (UniProt Q01094)
Assay: co-IP; PANC-1 cell lysates; anti-E2F1 antibody used for IP, IgG antibody as negative control, input as positive control; immunoblotting

binding: binds
B1: Zinc finger protein 655 (protein, UniProt Q8N720 1-491)
chain: MEEIPAQEAAGSPRVQFQSLETQSECLSPEPQFVQDTDMEQGLTGDGETREENKLLIPKQKISEEVHSYKVRVGRLKHDITQVPETREVYKSEDRLERLQEILRKFLYLEREFRQITISKETFTSEKNNECHEPEKSFSLDSTIDADQRVLRIQNTDDNDKYDMSFNQNSASGKHEHLNLTEDFQSSECKESLMDLSHLNKWESIPNTEKSYKCDVCGKIFHQSSALTRHQRIHTREKPYKCKECEKSFSQSSSLSRHKRIHTREKPYKCEASDKSCEASDKSCSPSSGIIQHKKIHTRAKSYKCSSCERVFSRSVHLTQHQKIHKEMPCKCTVCGSDFCHTSYLLEHQRVHHEEKAYEYDEYGLAYIKQQGIHFREKPYTCSECGKDFRLNSHLIQHQRIHTGEKAHECNECGKAFSQTSCLIQHHKMHRKEKSYECNEYEGSFSHSSDLILQQEVLTRQKAFDCDVWEKNSSQRAHLVQHQSIHTKENS
